# From PubChem BioAssay AID1347423 (Functional Genomics Laboratory (NCATS/FGL), 2020)
# Screen size: about 52,000 sequences; about 210 (0.4%) were called active.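 Rule for the calls: active = gene whose silencing raises cell survival under the drug, median off-target-corrected z-score across its silencing RNAs 2 or more; inactive = the rest.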 This is one part of the list.
# Test: Resistance to Poly (ADP-Ribose) Polymerase inhibitor: Gene Identification via Genome-wide siRNA Screen
# Details: mouse BRCA2 R2336H ES cells, olaparib, CellTiter-Glo viability; active compounds read high
# How it was run: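 Mouse BRCA2 R2336H ES cells were reverse-transfected with siRNA (20 nM final), treated at 48 h with 500 nM olaparib, and read by CellTiter-Glo after 72 h. Scores: MAD-based z per siRNA, median per gene, seed off-target correction.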
row,Sequence,z-score
1,CGAGAUCUGACAUAGUGUCTT against Pdia6,inactive: -0.0142
2,GGGCUGUUCCAUUUCUUUATT against Atcay,inactive: 0.257
3,GCAGCGGCUUUACAAGGAUTT against Tceb2,inactive: -2.04
4,GGACAAAAGCAGCUUGAGUTT against 1810063B05Rik,inactive: -0.476
5,GGGUAGAAUGUGUGUGUCUTT against 1300007F04Rik,inactive: -1.14
6,GGAAUAUGACUACAUGAAATT against Calu,inactive: 0.98
7,GUUCUCACUCAAGGUCACCTT against BC035954,inactive: 2.89
8,GGAUACAAAUGAAAGCUUATT against Zfp354b,inactive: 0.123
9,GGGAUGGACAAGUUGUACUTT against Renbp,inactive: -0.657
10,CGUGGGCUCUCUAGAUGAATT against S100a13,inactive: 0.869
11,GGAUGACGACGAUUACAACTT against Nkx6-1,inactive: -0.525
12,CCAGCUUUGGGAAAUACCGTT against Sertad1,inactive: -0.411
13,GGAAAUGCAGAAGUUCUUUTT against Mmp7,inactive: 0.139
14,CCUAGAAAAGUCAUUGUCATT against 3010003L21Rik,inactive: 1.2
15,CCUUCGAUGAAGUAUACAATT against Ipo4,inactive: -1.13
16,CCCUUCUGUAAACACCACATT against 1700055N04Rik,inactive: -1.5
17,GGCGGCACAAAUUGUUUUUTT against A630002K24,inactive: -1.38
18,GCGAAACACAUAAUGAGUCTT against Brrn1,inactive: 0.511
19,CCUUGUUCCCGAAAUACCGTT against Hrb2,inactive: 0.916
20,GGCCUAUUCACAGGUGUGATT against C330046G03Rik,inactive: -2.15
21,GGAGCUGGAAGAGUGGUAUTT against Clta,inactive: 0.775
22,AGACUGGGUUGUGAAGAUATT against 4930563M21Rik,inactive: -0.598
23,GAUGUUCUUCUUACACUCCTT against Olfr559,inactive: -0.553
24,GCAUUUCCUAGUGUCUAUUTT against A930027H06Rik,inactive: -0.919
25,GGACUCUUUGACCACAAGCTT against 2700085M18Rik,inactive: -0.985
26,GGCAAAGUUUGACCAGUGUTT against Ndufa8,inactive: -0.829

row,Sequence,z-score
1,GGUGUAAUUCUCAUUGUGCTT against Slc10a2,inactive: -0.177
2,GGUACUCAACAUGAUGCCCTT against 1110001K21Rik,inactive: 1.04
3,GAGUCUGGUUAUGUGGCAUTT against Scgb1a1,inactive: 0.163
4,GCAUCAUUAAAAAGGAGAGTT against Shmt1,inactive: -2.11
5,GGUUUUUGAAUUCCAGUUGTT against 9030611N15Rik,inactive: 0.177
6,GGAGUCAACACACAUCAAGTT against Zfp13,inactive: 0.5
7,GGAUUCCAAACCAGAAAACTT against 4930455F23Rik,inactive: -0.0775
8,GCAAGGUGAUUUGUGUUCGTT against 6430556C10Rik,inactive: -0.968
9,GGCAACAUUCCUUAUUCACTT against Sh3bgrl3,inactive: 0.287
10,GCCUUGCCCUUGUGUUUCUTT against 1110002E23Rik,inactive: 1.45
11,GCUAGUAUCAUGGAACCUCTT against 4933408F15,inactive: -0.0262
12,CGGACUUUCCCGGUAACUATT against Rpo1-1,inactive: -2.25
13,GGAAGACUCUUGGAUUCUCTT against Evi5,inactive: 0.0997
14,GGGUUUUUAGCUAAUACUATT against Pdk1,inactive: -0.333
15,GGGCUGUGAUCUUAUUUCATT against Tpk1,inactive: 0.0513
16,GGAUUGAUAAUUUCCUGAATT against Nol6,inactive: -0.924
17,GCACGGUCUUAUUGAGAGGTT against 2210018M03Rik,inactive: 0.0257
18,CCGAGACAUAUACAAAGGATT against Klkb1,inactive: -1.1
19,GCAUUCAGACCAUGACACUTT against LOC209387,inactive: -0.793
20,GGUCAUCAGAAUGUGAAAATT against Zfp354a,inactive: -0.144
21,GGAACUAUCACGUGUUCUATT against Myo7a,inactive: 2.01
22,GGCGGAAAUCUUGAGCAAATT against Slc28a2,inactive: -0.0691
23,CCGAGGCAUCUUAGCUUAATT against Nxt1,inactive: -0.221
24,GGGCUACAAGAAAAAGUAUTT against Krt2-18,inactive: -1.86
25,CCUCUAGCCAUCUACUUUGTT against Rad9b,inactive: -2.68
26,GCCCACCUGUGCAAUCAUATT against Arl4,inactive: -0.734

row,Sequence,z-score
1,CCUCCAUUGCAUGUCCCAATT against ADAM26b,inactive: -2.61
2,CCAUAUCAUUGAUAUAGCUTT against Thoc3,inactive: 1.17
3,GCUCCAGUUGCCUCUUUUUTT against Olfr900,inactive: 0.683
4,CCGCUGUGAUACCAUAUACTT against G630049C14Rik,inactive: 1.07
5,CGCAGAAGUGCGUGAUUUCTT against Dfna5h,inactive: 1.49
6,GUCGCCGUGUAUGUAUCAUTT against Olfr727,inactive: 1
7,GGAGGGUCCUUUUUCACAUTT against Asph,inactive: -0.44
8,GGUUAAAGGAAAAUGACACTT against Cdh6,inactive: 1.79
9,GGAUUUCUUUGGUGAGACUTT against Gstk1,inactive: -1.54
10,GGUGGAGGAUUUUUCAGAUTT against Hs6st2,inactive: -0.83
11,GCAGUGGGAGUAUACAUCUTT against Olfr847,inactive: 1.67
12,GGGAAAUUUAAAAACCUGGTT against Hoxa2,inactive: -0.955
13,GGAAAUUAACUUCACUGCUTT against Olfr669,inactive: -0.269
14,GCUAUUGGGUAGAUUGAUATT against Baat,inactive: 0.164
15,GCGGCCGACUUUGUGAAAGTT against 1810003N24Rik,inactive: -1.16
16,GCAUCUCCCUUAUGUCUGUTT against Nubp2,inactive: -1.39
17,GGCUUAUGUGGUCCUUGGCTT against Banf1,inactive: -0.355
18,GCCAGUACACUCCACCUGUTT against 1200008O12Rik,inactive: 0.654
19,CCUGUCUUUAGUGGACUUUTT against Olfr1453,inactive: -1.85
20,GGAUUUUGAAGCCAGUUGCTT against Ubash3a,inactive: -0.419
21,GGACUAUAUUCUUAACUCATT against F11r,inactive: -1.29
22,GCGAAGCGUGCUGCUAAGATT against D10Ertd718e,inactive: 1.21
23,GGAAGUCAACCGAGUCUUCTT against LOC434484,inactive: -2.13
24,GGGCAUUGCCAGGAAUUAUTT against Lrp1b,inactive: 0.0608
25,GCUCGCCAAUAUGUAUAUGTT against ORF34,inactive: -0.0627
26,CGUGGUCUUCACGAUUGGATT against Pde4c,inactive: 0.924

row,Sequence,z-score
1,CCAUUGAGGGAAUGAUUAATT against Acvr1b,inactive: -0.164
2,GGACAAAAAAGAAGGUGAATT against 8430417A20Rik,inactive: -0.559
3,CGCUGCUGGUUCAUAUUGGTT against Zdhhc25,inactive: -2.52
4,GCCAGGAUUAUCUUGAGAATT against Prpf39,inactive: -0.069
5,GGUACUGGAUGAGCUGAGGTT against Letm1,inactive: 0.336
6,GGAGUGCUUGAAGAACAUATT against Kcnk7,inactive: 0.459
7,GCUGGGUCAUUUAACAAGCTT against 1300002F13Rik,inactive: -0.4
8,CGUGGAAGAAAUAAUUAGGTT against C230052I12Rik,inactive: 0.24
9,GCAUUUGGAAUUUACCAUGTT against 1810073M12Rik,inactive: 1.29
10,CCAUUCCAGUUAUGUCAAUTT against Pus3,inactive: -0.401
11,GGACAAAAGACUUGAAUUUTT against Alox15,inactive: 0.668
12,GGUAUUACUGAAAAGCACCTT against 2310008H04Rik,inactive: -1.36
13,CGACUGGAAUCUAAUAACUTT against Fgf2,inactive: 0.0702
14,GGUAUUCCCUAGAGAUAAATT against Olfr1241,inactive: -0.111
15,CGAAACACUCAAGGUUGUATT against Creb3l2,inactive: 0.177
16,GCAUGACAGGAAACUCUCUTT against Olfr1308,inactive: 0.0733
17,GGGUGUAGCAUUGUCACAGTT against Olfr1133,inactive: -0.186
18,GGAACCUUUGAGAAUAUGATT against Spats2,inactive: 0.149
19,GCUAUAGGAACCUUCAGAGTT against Dtr,inactive: 0.872
20,GGAGUACACGUUCAUCAUCTT against Clstn2,inactive: 0.743
21,GGACUUUCGUCGUACUCGUTT against Terf1,inactive: 0.655
22,GGCCUGCUUUGUUCUGAAUTT against Olfr846,inactive: 0.0902
23,CCUGCUUUCUCUAUACCUATT against BC030867,inactive: -2.38
24,CCUAAUUAUAACCCUGACCTT against Olfr845,inactive: 0.554
25,GGAUUUGACCGGCUAAUACTT against 0610009C03Rik,inactive: -2.05
